Experimental data from paper PMC4978524.
These are yes or no findings as the source states them, for the method shown. In cells and extracts the contact can be indirect. Some binding calls cover weakened binding; strength is not graded here. Each block holds one substance with its values, some of them ahead of it.

By UniProt entry, the sequences of proteins in these tests, tags left out. Residues count along the entry.
UniProt Q9VAF5, residues 29-1706: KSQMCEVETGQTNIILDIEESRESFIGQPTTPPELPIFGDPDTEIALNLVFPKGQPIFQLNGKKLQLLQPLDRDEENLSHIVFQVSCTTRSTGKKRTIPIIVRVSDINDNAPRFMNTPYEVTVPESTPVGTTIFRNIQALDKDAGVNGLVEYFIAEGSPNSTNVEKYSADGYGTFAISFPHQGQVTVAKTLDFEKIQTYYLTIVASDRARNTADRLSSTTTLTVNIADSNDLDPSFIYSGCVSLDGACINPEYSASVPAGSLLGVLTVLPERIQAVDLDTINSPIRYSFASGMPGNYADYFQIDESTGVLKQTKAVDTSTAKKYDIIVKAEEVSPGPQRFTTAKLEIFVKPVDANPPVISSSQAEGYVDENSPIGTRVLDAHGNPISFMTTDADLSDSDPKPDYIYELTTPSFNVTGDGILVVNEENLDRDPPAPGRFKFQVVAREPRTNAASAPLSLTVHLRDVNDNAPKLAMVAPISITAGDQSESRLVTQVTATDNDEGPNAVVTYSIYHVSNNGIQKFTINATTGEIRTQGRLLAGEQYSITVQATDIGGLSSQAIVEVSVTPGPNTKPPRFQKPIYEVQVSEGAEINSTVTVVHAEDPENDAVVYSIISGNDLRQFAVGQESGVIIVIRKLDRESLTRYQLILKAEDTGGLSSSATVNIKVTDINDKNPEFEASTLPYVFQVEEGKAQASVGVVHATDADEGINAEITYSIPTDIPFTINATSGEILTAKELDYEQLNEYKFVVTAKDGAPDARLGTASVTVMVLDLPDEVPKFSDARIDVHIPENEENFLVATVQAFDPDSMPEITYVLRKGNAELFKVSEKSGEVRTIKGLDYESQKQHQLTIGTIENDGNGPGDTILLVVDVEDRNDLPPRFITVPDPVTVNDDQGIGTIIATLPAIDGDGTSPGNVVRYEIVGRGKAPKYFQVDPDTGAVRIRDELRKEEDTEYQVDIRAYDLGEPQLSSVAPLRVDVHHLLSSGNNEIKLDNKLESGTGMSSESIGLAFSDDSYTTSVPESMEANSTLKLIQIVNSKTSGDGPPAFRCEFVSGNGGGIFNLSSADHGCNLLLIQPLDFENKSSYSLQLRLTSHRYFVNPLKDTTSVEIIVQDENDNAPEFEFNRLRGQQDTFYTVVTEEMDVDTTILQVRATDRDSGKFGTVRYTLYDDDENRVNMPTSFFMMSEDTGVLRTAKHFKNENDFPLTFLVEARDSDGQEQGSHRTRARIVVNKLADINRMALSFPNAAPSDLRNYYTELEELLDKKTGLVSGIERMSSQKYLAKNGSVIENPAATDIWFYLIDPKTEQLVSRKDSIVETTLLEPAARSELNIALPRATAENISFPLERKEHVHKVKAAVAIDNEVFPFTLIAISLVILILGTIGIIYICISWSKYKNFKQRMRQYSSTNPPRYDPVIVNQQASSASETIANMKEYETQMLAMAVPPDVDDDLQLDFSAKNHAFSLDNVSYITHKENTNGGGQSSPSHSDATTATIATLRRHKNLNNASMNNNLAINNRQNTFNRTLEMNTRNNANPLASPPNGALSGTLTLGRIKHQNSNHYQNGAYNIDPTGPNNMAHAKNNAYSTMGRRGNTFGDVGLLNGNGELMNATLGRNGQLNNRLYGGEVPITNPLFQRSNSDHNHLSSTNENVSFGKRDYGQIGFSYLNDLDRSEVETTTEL
UniProt Q8VDD5: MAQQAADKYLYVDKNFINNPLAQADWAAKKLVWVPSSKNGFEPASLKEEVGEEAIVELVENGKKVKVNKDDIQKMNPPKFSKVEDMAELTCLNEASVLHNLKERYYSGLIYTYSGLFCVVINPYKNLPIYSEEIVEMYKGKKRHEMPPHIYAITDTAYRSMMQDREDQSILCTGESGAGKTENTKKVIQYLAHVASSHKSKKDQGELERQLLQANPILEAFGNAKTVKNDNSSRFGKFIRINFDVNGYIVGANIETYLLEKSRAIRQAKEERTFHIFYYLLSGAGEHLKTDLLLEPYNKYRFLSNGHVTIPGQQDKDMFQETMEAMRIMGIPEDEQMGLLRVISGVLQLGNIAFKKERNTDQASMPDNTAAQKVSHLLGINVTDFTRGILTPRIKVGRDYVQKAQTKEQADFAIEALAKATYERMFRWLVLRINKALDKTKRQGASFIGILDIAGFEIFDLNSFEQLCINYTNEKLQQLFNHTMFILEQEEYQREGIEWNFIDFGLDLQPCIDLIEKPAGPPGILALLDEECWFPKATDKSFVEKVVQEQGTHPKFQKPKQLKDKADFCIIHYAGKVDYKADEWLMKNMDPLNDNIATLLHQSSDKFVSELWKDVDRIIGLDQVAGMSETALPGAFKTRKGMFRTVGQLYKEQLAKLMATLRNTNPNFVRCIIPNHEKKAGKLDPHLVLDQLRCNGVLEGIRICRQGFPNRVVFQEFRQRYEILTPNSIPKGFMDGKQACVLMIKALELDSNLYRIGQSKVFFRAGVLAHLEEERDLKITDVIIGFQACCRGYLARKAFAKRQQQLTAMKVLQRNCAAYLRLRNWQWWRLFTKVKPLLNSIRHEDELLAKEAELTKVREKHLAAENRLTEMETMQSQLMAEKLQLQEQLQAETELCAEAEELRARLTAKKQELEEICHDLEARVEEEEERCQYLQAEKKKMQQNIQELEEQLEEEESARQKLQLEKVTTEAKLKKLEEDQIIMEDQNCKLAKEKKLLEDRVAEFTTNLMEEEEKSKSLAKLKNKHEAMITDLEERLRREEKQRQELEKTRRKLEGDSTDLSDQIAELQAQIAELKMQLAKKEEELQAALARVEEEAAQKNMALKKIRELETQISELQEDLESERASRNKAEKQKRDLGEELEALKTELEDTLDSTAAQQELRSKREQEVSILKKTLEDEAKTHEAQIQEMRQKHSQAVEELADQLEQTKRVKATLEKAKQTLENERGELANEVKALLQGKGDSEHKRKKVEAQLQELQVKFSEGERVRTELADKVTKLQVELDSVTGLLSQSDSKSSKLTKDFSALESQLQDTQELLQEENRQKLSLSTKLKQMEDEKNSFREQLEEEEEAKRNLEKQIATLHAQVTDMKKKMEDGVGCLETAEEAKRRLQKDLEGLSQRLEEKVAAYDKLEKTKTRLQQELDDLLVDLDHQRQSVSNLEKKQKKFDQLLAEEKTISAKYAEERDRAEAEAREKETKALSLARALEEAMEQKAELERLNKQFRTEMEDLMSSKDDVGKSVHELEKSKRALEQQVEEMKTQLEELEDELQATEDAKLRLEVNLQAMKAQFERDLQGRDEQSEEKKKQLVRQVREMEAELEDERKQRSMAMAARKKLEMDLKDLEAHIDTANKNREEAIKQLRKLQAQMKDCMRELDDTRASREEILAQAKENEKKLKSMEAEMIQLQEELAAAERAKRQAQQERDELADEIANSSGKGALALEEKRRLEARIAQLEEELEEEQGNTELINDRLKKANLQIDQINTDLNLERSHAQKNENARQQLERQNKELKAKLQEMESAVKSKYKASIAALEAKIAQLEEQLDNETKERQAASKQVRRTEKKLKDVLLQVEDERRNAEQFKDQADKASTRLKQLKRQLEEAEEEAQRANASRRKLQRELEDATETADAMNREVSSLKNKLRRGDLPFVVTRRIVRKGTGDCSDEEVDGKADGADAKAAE
UniProt P97479: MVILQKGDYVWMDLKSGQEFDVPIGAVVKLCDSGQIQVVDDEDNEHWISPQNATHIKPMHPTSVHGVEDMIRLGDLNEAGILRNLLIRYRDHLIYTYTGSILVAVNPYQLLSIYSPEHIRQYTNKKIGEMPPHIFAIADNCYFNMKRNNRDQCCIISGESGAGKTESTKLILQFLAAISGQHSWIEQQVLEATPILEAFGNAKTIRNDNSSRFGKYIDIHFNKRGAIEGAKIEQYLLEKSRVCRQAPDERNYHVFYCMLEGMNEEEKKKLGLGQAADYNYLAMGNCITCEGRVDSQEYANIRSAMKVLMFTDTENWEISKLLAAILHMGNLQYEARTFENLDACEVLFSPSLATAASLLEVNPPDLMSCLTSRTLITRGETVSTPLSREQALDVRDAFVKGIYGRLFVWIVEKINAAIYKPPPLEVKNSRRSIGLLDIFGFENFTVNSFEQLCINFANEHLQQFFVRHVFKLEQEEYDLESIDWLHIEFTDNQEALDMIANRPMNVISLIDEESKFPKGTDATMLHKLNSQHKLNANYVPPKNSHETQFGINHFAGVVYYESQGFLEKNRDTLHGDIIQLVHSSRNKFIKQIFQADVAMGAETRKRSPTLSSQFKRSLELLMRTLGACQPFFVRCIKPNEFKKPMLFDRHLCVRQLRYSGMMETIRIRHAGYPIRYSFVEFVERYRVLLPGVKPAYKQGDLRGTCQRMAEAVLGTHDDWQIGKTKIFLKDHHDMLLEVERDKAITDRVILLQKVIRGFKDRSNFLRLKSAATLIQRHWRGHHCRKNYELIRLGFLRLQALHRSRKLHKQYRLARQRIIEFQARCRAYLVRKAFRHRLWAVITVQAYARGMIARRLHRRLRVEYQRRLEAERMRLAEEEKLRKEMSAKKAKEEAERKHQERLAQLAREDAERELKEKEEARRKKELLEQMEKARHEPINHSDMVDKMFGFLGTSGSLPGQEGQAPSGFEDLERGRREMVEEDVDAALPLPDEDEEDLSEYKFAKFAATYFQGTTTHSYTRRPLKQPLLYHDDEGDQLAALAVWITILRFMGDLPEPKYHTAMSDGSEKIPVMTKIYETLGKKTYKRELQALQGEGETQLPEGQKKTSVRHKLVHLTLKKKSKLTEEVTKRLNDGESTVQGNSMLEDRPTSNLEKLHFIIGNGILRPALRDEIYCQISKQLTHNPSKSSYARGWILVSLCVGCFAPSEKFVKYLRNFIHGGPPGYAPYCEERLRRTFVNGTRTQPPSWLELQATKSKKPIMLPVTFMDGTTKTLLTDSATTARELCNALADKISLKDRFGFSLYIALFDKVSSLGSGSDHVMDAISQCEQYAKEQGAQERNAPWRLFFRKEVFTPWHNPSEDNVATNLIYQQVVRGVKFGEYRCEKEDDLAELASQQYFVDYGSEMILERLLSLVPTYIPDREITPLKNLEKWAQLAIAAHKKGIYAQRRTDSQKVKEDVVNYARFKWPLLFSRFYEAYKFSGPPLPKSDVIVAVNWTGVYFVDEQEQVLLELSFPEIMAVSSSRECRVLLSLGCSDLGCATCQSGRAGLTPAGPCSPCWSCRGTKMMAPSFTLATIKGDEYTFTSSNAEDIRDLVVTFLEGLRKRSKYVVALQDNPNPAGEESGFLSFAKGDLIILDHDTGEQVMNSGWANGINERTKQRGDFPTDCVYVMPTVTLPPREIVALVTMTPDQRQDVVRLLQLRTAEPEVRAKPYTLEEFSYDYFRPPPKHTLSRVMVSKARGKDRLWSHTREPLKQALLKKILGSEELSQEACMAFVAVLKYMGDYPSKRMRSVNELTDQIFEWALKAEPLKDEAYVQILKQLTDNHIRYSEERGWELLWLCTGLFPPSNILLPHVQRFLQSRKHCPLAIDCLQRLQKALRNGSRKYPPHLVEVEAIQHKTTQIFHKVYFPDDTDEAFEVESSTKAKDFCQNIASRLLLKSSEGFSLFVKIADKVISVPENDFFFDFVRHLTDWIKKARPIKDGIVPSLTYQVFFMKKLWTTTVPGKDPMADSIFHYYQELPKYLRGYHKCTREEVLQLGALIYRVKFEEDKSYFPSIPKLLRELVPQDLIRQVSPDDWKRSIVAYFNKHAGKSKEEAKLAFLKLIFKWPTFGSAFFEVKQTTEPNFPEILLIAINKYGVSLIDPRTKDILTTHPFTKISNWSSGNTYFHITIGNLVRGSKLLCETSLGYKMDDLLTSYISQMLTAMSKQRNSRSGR

Legend:
[1] = molecular target: MyoVIIa-GFP (Drosophila Myosin VIIa, in S2 cells) (Drosophila) (UniProt Q9V3Z6); assay: co-IP; S2 cells transfected with GFP-tagged and V5-tagged constructs, lysed 48 hr after transfection (Tris-HCl 25 mM pH 7.5, NaCl 150 mM, NP-40 1%), precipitated with GFP nanobody conjugated beads overnight at 4°C, western blots
[2] = molecular target: Cul1-GFP (Drosophila Cullin1, in S2 cells) (Drosophila) (UniProt Q24311); assay: as above
[3] = molecular target: HA-Cad99C-V5 fusion protein, full length (Drosophila) (UniProt Q9VAF5); assay: co-IP; reciprocal: HA-Cad99C-V5 expressed in S2 cells, anti-HA or anti-V5 immunoprecipitation from lysate, western blots
[4] = molecular target: MyoIIa (mouse, encoded by MYH9) (mouse (endogenous in P5 cochlea)) (UniProt Q8VDD5); assay: co-IP; anti-MyoIIa antibody, P5 mouse cochlear (inner ear) lysate, western blotting

binding [1]: no binding
binding [2]: no binding
Substance: Cad99C-V5, full length 250 kDa protein (Drosophila homologue of PCDH15) (from UniProt Q9VAF5 29-1706)

binding [3]: no binding
Substance: Cul1-GFP (Drosophila Cullin1, in S2 cells) (from UniProt Q24311 1-774)

binding [4]: binds
Substance: MyoVIIa (mouse) (from UniProt P97479 1-2215)

binding [3]: no binding
Substance: MyoVIIa-GFP (Drosophila Myosin VIIa, in S2 cells) (from UniProt Q9V3Z6 1-2167)
